# In PubChem BioAssay AID588497 (NMMLSC, 2011):
# The whole screen tested about 360,000 compounds, of which about 780 (0.22%) were called active. This list was built around the results that the source calls inconclusive (neither active nor inactive); the mix of calls is not that of the screen. No stated cut-off is given here; in the data, active means inhibition above about 35% (passing the limit was not always enough); inconclusive means no clear call, values can overlap the other calls.
# Tested on: Botulinum neurotoxin type F light chain protease (Clostridium botulinum)
# Assay: BoNT/F light chain protease inhibitors, primary screen, biochemical, flow cytometry, MLPCN library (AID 588497); further: plate controls were buffer without enzyme for full effect and enzyme alone for no effect
# Conditions: Multiplex microsphere protease cleavage assay, at 10 µM, active compounds read high
row,Compound,inhibition
1,Cc1ccc(Cl)c(OCCN2CCc3ccccc3C2)c1,inactive: 10.6%
2,N#C/C(=C\c1ccc(O)c([N+](=O)[O-])c1)C(=O)NCc1ccccc1,inactive: -3.5%
3,CC(OC(=O)c1ccc(F)c(S(=O)(=O)N2CCOCC2)c1)C(=O)NCC1CCCCC1 (stereo unspecified),inactive: 13.4%
4,Cc1cc(C(=O)Nc2ccccc2)oc(=O)c1,inconclusive: 40.6%
5,Cc1cc(C(=O)NC2CCCCCCC2)ccc1[N+](=O)[O-],inconclusive: -31.2%
6,Cc1cc(C)c(OCCCNCc2ccccc2)c(Br)c1,inconclusive: -17.5%
7,CCN(CC)c1ccc(/C=N/NC(=O)CNC(=O)C2COc3ccccc3O2)c(O)c1 (stereo unspecified),inactive: -0.4%
8,Cc1cc(C(F)(F)F)cc(NNC(=O)NC(=O)c2ccc(Cl)cc2)n1,inconclusive: 20.2%
9,O=C1C(=O)N(c2ccccc2)C(c2ccccc2[N+](=O)[O-])/C1=C(\O)c1ccccc1 (stereo unspecified),inactive: 0%
10,CCOC(=O)C1=C(C)N=c2s/c(=C\c3ccc(C(=O)O)cc3)c(=O)n2C1c1ccc(OC)cc1OC (stereo unspecified),inconclusive: 5.1%
11,CN(C)S(=O)(=O)c1cccc(NC(=O)CCc2nc3cc(S(=O)(=O)N4CCOCC4)ccc3n2C)c1,inconclusive: 13.1%
12,CN(C(=O)COC(=O)CSc1ccc(C(N)=O)cc1[N+](=O)[O-])C1CCCCC1,inactive: 8%
13,CCCN(CCC)c1nc(N)c(C#N)c(CC#N)c1C#N,inactive: -5.3%
14,O=C(NCc1c(Cl)cccc1Cl)c1[nH]c(C(F)(F)F)nc1-c1ccccc1,inactive: -2%
15,Cc1nc(C)n(C(C)CNC(=O)c2ccccc2)n1 (stereo unspecified),inconclusive: 15.1%
16,COC(=O)C1CC(=O)N(c2ccc(C)cc2)C1 (stereo unspecified),inactive: 1.2%
17,C/C(=N\n1c(C)nc2ccccc2c1=O)c1ccc(C)o1,inconclusive: 97.4%
18,Cc1ccc(Nc2nc(N)[nH]c(=O)c2N=O)cc1,inconclusive: -7.9%
19,FC(F)(F)c1ccccc1NC(=S)N1CCCC1,inconclusive: 16.5%
20,CCN1/C(=C2/SC(=S)N(NC(C)=O)C2=O)Sc2ccc(Cl)cc21,inconclusive: 14.1%
21,Cc1ccc(CNC(=O)CCC2CCCN(Cc3c(C)nn(C(C)C)c3C)C2)o1 (stereo unspecified),inactive: -4%
22,CCOC(=O)C1=C(C)NC(=O)NC1c1ccsc1 (stereo unspecified),inactive: -2.9%
23,CSC1=NCCCN1C(=O)c1c(-c2ccccc2Cl)noc1C,inconclusive: 31.1%

row,Compound,inhibition
1,COc1cccc(NC(=S)NCc2ccc(F)cc2)c1,inconclusive: -0.6%
2,CSc1ccc(S(=O)(=O)NC2CC3CCC2C3)cc1 (stereo unspecified),inconclusive: 15.8%
3,Cc1ccc2nc3[nH]c(=O)[nH]c(=O)c3c(N)c2c1,inactive: -6.4%
4,CCOC(=O)c1[nH]c(C)c(C(=O)N(C)Cc2ccccc2)c1C,inactive: 1%
5,COc1ccc(CCNC(=S)NC(=O)c2cccc(Cl)c2)cc1OC,inactive: 6.7%
6,CC1CN(CCCCOc2ccc(Cl)c3ccccc23)CC(C)O1 (stereo unspecified),inconclusive: -14.3%
7,O=C(CSc1nc2ccccc2c(=O)n1Cc1ccco1)Nc1cccc(O)c1,inactive: 26.1%
8,O=C(COC(=O)c1n[nH]c(=O)c2ccccc12)Nc1cccc(S(=O)(=O)N2CCOCC2)c1,inactive: 2.9%
9,Nc1c(C(=O)Nc2cccc(Cl)c2Cl)sc2nc(-c3cccnc3)ccc12,inactive: 10.9%
10,O=C(Nc1cccc(O)c1)C1CC(c2c(F)cccc2Cl)=NO1 (stereo unspecified),inconclusive: 18.2%
11,Cc1ccc(S(=O)(=O)N(Cc2ccccc2F)C(=O)N2CCN(C)CC2)cc1,inconclusive: -2.7%
12,COc1cc(CCC(=O)O)on1,active: 61.6%
13,COc1ccc(NC(C)C(=O)Nc2ccc(C(C)(C)C)cc2)cc1Cl (stereo unspecified),inactive: -14.9%
14,CC(=O)Nc1ccc(CN2CCC(N3CCC(C(=O)NC4CC4)CC3)CC2)cc1,inactive: -0.7%
15,CCC(=O)N/C(=N/c1nc(C)cc(C)n1)Nc1ccccc1,inconclusive: -114%
16,CCn1c(SCC(=O)Nc2ccc(C(C)=O)cc2)nc2nc3c(cc2c1=O)CCCC3,inactive: 1.1%
17,COc1cc(C2NC(=O)NC(O)(C(F)(F)F)C2C(C)=O)cc(OC)c1OC (stereo unspecified),inactive: -14.2%
18,CCS(=O)(=O)Nc1cccc(C2=NN(S(=O)(=O)c3ccccc3)C(c3cccs3)C2)c1 (stereo unspecified),inactive: -3.9%
19,CCC(CC)c1nnc(NC(=O)Oc2ccccc2)s1,active: 42.5%
20,COc1ccc(-c2[nH]ncc2CN2CCCN(C(=O)c3ccco3)CC2)cc1F,inactive: 0.7%
21,O=C(N1CCCCC1)N1CCN(C(c2ccccc2)c2ccccc2)CC1,inactive: -6.5%
22,O=C(NCCN1CCOCC1)c1cc(-c2ccccc2)nc2ccccc12,inactive: 0.1%
23,CC(=O)N1CCN(C(=O)c2ccc(S(=O)(=O)Nc3ccccc3C)cc2)CC1,inconclusive: 6.9%

row,Compound,inhibition
1,Cc1cc(S(=O)(=O)N2CCCCC2CCNC(=O)C(=O)NCc2cccnc2)ccc1F (stereo unspecified),inactive: -7%
2,COc1ccc(/C=N/NC(=O)c2cccnc2)cc1COc1ccc([N+](=O)[O-])cc1,inconclusive: -10.9%
3,O=C(O)c1ccc(N/N=C/C(Br)=C/c2ccccc2)cc1,inactive: -3.2%
4,CCCCc1ccc(NC(=S)N2CCN(C(=O)OCC)CC2)cc1,inconclusive: 30.5%
5,COc1cccc(OCCOc2ccc(/C=C3/SC(=S)NC3=O)cc2)c1,inconclusive: 11.4%
6,CCCCc1cc(=O)oc2cc(OCc3nn[nH]n3)ccc12,inconclusive: 36.4%
7,Nc1cccc2c1C(=O)N(C(=O)c1cccc(S(=O)(=O)N3CCCCCC3)c1)C2=O,inactive: -0.8%
8,O=C(c1ccccc1)c1ccccc1N1C(=O)C=CC1=O,inconclusive: 52.9%
9,Cc1onc(-c2ccccc2)c1CNC(=O)CN1C(=O)c2ccccc2C1=O,inconclusive: -29.9%
10,Cc1noc(C)c1-c1nc(CSc2ccc(Cl)cc2)no1,inconclusive: 16.3%
11,Cc1nn(-c2ccccc2)nc1CNS(C)(=O)=O,inconclusive: -31.2%
12,COc1ccc(CCc2nnc(NS(C)(=O)=O)s2)cc1,inconclusive: -21.8%
13,O=C(C[C@@H]1C/C=C\CC[C@@H](Cc2ccc(F)cc2)C(=O)OC[C@@H](Cc2ccccc2)NC1=O)NCCO,inactive: -2.7%
14,Cc1ccc(C(=O)C2=C(O)C(=O)N(c3ncccn3)C2c2ccc(F)cc2)o1 (stereo unspecified),inconclusive: -50.5%
15,O=C(Cn1nc(-c2ccccc2)c2ccccc2c1=O)NN1CCOCC1,inconclusive: -87.1%
16,O=C(O)c1cccc(Nc2ccc([N+](=O)[O-])c3nonc23)c1,inconclusive: 13%
17,COCCCn1c(=S)[nH]c(C)c(C)c1=O,inactive: 1%
18,Cc1ccc(C)c(CN2CCN(c3ncccn3)CC2)c1,inconclusive: -39.6%
19,Cc1nc(SCC(=O)N2CCCCCC2)[nH]c(=O)c1C,inactive: 6%
20,COC(=O)c1cn(C(=O)c2ccc(OC)cc2)c2ccccc12,active: 36.3%
21,CC1=C(C#N)C(c2ccc(O)cc2)C(C#N)=C(C)N1,inconclusive: -16.8%
22,CC(O)c1cc2c(s1)c1cnn(Cc3ccccc3F)c(=O)c1n2C (stereo unspecified),inactive: -1.8%
23,O=C(C=CC=Cc1ccccc1)c1ccc([N+](=O)[O-])cc1,inactive: -3.2%

# Four records picked at random from the list so far:
row,Compound,inhibition
15,O=C(Cn1nc(-c2ccccc2)c2ccccc2c1=O)NN1CCOCC1,inconclusive: -87.1%
7,Nc1cccc2c1C(=O)N(C(=O)c1cccc(S(=O)(=O)N3CCCCCC3)c1)C2=O,inactive: -0.8%
14,Cc1ccc(C(=O)C2=C(O)C(=O)N(c3ncccn3)C2c2ccc(F)cc2)o1 (stereo unspecified),inconclusive: -50.5%
21,CC1=C(C#N)C(c2ccc(O)cc2)C(C#N)=C(C)N1,inconclusive: -16.8%

# (list continues)

row,Compound,inhibition
1,CNc1nc(-c2c[nH]c3ccccc23)cs1,inconclusive: -77.8%
2,CCOC(=O)/C(C#N)=C1\C(=O)N(Cc2ccccc2)c2ccccc21,inconclusive: -3.6%
3,FC(F)C(F)(F)c1cc(-c2ccc(Cl)cc2)n[nH]1,inconclusive: -14.3%
4,CN(C)CCC(=O)C(Cc1ccccc1)c1ccccc1 (stereo unspecified),inconclusive: 31.8%
5,CC(=O)Oc1cccc(N2C(=O)CC(Nc3ccc(N4CCOCC4)cc3)C2=O)c1 (stereo unspecified),inconclusive: -39.9%
6,C=CCSc1nc(N(CC)CC)c2sccc2n1,inconclusive: -0.6%
7,COc1ccc(C(=O)Nc2nc(CC(=O)NCc3c(F)cccc3F)cs2)cc1,inactive: 0.3%
8,C=C(C)c1cccc(C(C)(C)NC(=O)N2CCN(C)CC2)c1,inconclusive: -35.9%
9,Nc1c([N+](=O)[O-])cc2c3c(cccc13)CC2,inactive: 1.3%
10,COc1ccc(-c2cc(C(=O)Nc3cc(S(N)(=O)=O)ccc3C)c3ccccc3n2)cc1OC,inconclusive: -0.9%
11,CN(C(=O)COC(=O)COc1ccccc1F)C1CCS(=O)(=O)C1 (stereo unspecified),active: 38.4%
12,COc1ccc(-c2cc(C(=O)N/N=C/c3cccnc3)c3ccccc3n2)c(OC)c1,inconclusive: -37.1%
13,COc1cccc(-c2noc(C3CCCN(C(=O)Cc4ccccc4)C3)n2)c1 (stereo unspecified),inactive: 0.2%
14,Cc1nnsc1C(=O)NNC(=O)c1cccc2ccccc12,inconclusive: 15.5%
15,O=c1[nH]c(=O)n(-c2cccc3ccccc23)c(O)c1/C=N/N1CCCCC1,inconclusive: -61.1%
16,O=C(O)/C(=C\c1ccc(-c2ccccc2[N+](=O)[O-])o1)c1ccccc1,inconclusive: 7.2%
17,CSc1ccc(C(c2c(C(=O)O)[nH]c3ccccc23)c2c(C(=O)O)[nH]c3ccccc23)cc1,inconclusive: -32.3%
18,CCCCC[n+]1ccn(C2=C([O-])c3ccccc3C(=O)/C2=N\S(=O)(=O)c2ccc(Cl)cc2)c1,inconclusive: 67.3%
19,CCCCCCCCCCCC(=O)N1CC(=O)NC(=O)C1,inactive: -60.5%
20,COc1ccc(CCNC(=O)C2c3ccccc3C(=O)N2CCC(C)C)cc1OC (stereo unspecified),inconclusive: 19.1%
21,O=C(NCc1ccccc1Cl)c1cc2ccccc2oc1=O,inconclusive: 8.3%
22,C=CCN=C1NN=C(c2ccc3c(c2)OCCO3)CS1,inactive: -6%
